Data source: PubChem BioAssay AID686938 (Drosophila RNAi Screening Center, 2013)

- Aim: 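Fly genes required for calcium entry once internal stores are emptied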 (primary screen)
- Cells: Drosophila S2R+ cells
- Reagents: long dsRNA against Drosophila genes, about 0.25 µg dsRNA per well, roughly 10,000 cells
- Time to read-out: 5 days of knock-down before the calcium assay
- Challenge: thapsigargin (SERCA pump blocker) to empty calcium stores; entry signal taken 4 min after adding it
- Measurement: 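Duplicate raw fluo-4 intensities per well from a plate reader, at rest and four minutes after thapsigargin emptied calcium stores; entry-to-rest ratio filled for only some wells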
- Direction: calcium entry signal: higher = stronger calcium signal after store depletion; entry to resting ratio: higher = more calcium entry relative to resting level; resting calcium signal: higher = higher resting calcium signal
- Hit rule: 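Hit if the duplicate-averaged plate z-score for entry over resting signal is under −3; wells with weak total dye signal (Fmax z < −2) or more than 5 off-targets removed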
- Meaning of the calls: active = strongly reduced calcium entry; inactive = no strong reduction
In all, the deposit lists about 23,000 reagents; shown is an unselected part of those with a known target gene and a result. In the full data, 75 (0.33%) are marked active. 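Raw plate signals without normalisation; calls rest on plate z-scores that were not deposited; ratio present for only 364 wells.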 Unmarked entries are inactive. Names joined by + are all predicted targets of the reagent. The record does not give: the dose of the treatment.

Against Gs1 (Glutamine synthetase 1) [DRSC00753], the entry reads calcium entry signal, replicate 1 (fluorescence units) = 3.65e7; resting calcium signal, replicate 1 (fluorescence units) = 1.76e7.
CG7362 [DRSC16236] showed calcium entry signal, replicate 1 (fluorescence units) = 3.23e7; calcium entry signal, replicate 2 (fluorescence units) = 2.51e7; resting calcium signal, replicate 1 (fluorescence units) = 1.65e7; resting calcium signal, replicate 2 (fluorescence units) = 1.29e7.
Silencing of CG3706 [DRSC18649] resulted in: calcium entry signal, replicate 1 (fluorescence units) = 4.00e7; calcium entry signal, replicate 2 (fluorescence units) = 3.03e7; entry to resting ratio 2.4; resting calcium signal, replicate 1 (fluorescence units) = 1.69e7; resting calcium signal, replicate 2 (fluorescence units) = 1.32e7.
Against CG9143 [DRSC07338], the values are calcium entry signal, replicate 1 (fluorescence units) = 3.26e7; calcium entry signal, replicate 2 (fluorescence units) = 2.57e7; resting calcium signal, replicate 1 (fluorescence units) = 1.63e7; resting calcium signal, replicate 2 (fluorescence units) = 1.44e7.
Rcd6 (Reduction in Cnn dots 6) [DRSC06054] scored calcium entry signal, replicate 1 (fluorescence units) = 3.74e7; calcium entry signal, replicate 2 (fluorescence units) = 4.09e7; resting calcium signal, replicate 1 (fluorescence units) = 1.82e7; resting calcium signal, replicate 2 (fluorescence units) = 2.03e7.
Knock-down of opa (odd paired) [DRSC12384] resulted in: calcium entry signal, replicate 1 (fluorescence units) = 2.47e7; calcium entry signal, replicate 2 (fluorescence units) = 4.94e7; resting calcium signal, replicate 1 (fluorescence units) = 1.33e7; resting calcium signal, replicate 2 (fluorescence units) = 2.18e7.
Silencing of opa (odd paired) [DRSC22563] came out at: calcium entry signal, replicate 1 (fluorescence units) = 4.35e7; calcium entry signal, replicate 2 (fluorescence units) = 3.54e7; resting calcium signal, replicate 1 (fluorescence units) = 2.53e7; resting calcium signal, replicate 2 (fluorescence units) = 1.60e7.
Against opa (odd paired) [DRSC23152], the entry reads calcium entry signal, replicate 1 (fluorescence units) = 3.11e7; calcium entry signal, replicate 2 (fluorescence units) = 3.55e7; resting calcium signal, replicate 1 (fluorescence units) = 1.79e7; resting calcium signal, replicate 2 (fluorescence units) = 1.80e7.
Depletion of Lipt1 + CG42837 [DRSC07183] resulted in: calcium entry signal, replicate 1 (fluorescence units) = 3.96e7; calcium entry signal, replicate 2 (fluorescence units) = 3.45e7; resting calcium signal, replicate 1 (fluorescence units) = 1.81e7; resting calcium signal, replicate 2 (fluorescence units) = 1.74e7.
For Mics1 (Mitochondrial morphology and cristae structure 1) [DRSC12537] the deposit lists calcium entry signal, replicate 1 (fluorescence units) = 4.12e7; calcium entry signal, replicate 2 (fluorescence units) = 3.17e7; resting calcium signal, replicate 1 (fluorescence units) = 1.88e7; resting calcium signal, replicate 2 (fluorescence units) = 1.65e7.
Against msl-3 (male-specific lethal 3) [DRSC11371], the entry reads calcium entry signal, replicate 1 (fluorescence units) = 3.42e7; calcium entry signal, replicate 2 (fluorescence units) = 3.59e7; resting calcium signal, replicate 1 (fluorescence units) = 1.68e7; resting calcium signal, replicate 2 (fluorescence units) = 1.55e7.
For Or42a (Odorant receptor 42a) [DRSC04912], the values are calcium entry signal, replicate 1 (fluorescence units) = 3.93e7; calcium entry signal, replicate 2 (fluorescence units) = 4.74e7; resting calcium signal, replicate 1 (fluorescence units) = 2.06e7; resting calcium signal, replicate 2 (fluorescence units) = 2.12e7.
With knock-down of HP1c (Heterochromatin Protein 1c) [DRSC16166], the record shows calcium entry signal, replicate 1 (fluorescence units) = 4.33e7; calcium entry signal, replicate 2 (fluorescence units) = 5.57e7; resting calcium signal, replicate 1 (fluorescence units) = 1.93e7; resting calcium signal, replicate 2 (fluorescence units) = 2.71e7.
With knock-down of Ugt50B3 (UDP-glycosyltransferase family 50 member B3) [DRSC04778], the screen gave calcium entry signal, replicate 1 (fluorescence units) = 2.40e7; calcium entry signal, replicate 2 (fluorescence units) = 3.14e7; resting calcium signal, replicate 1 (fluorescence units) = 1.27e7; resting calcium signal, replicate 2 (fluorescence units) = 1.33e7.
Ugt50B3 (UDP-glycosyltransferase family 50 member B3) [DRSC04779] gave calcium entry signal, replicate 1 (fluorescence units) = 2.28e7; calcium entry signal, replicate 2 (fluorescence units) = 3.59e7; resting calcium signal, replicate 1 (fluorescence units) = 1.22e7; resting calcium signal, replicate 2 (fluorescence units) = 1.55e7.
Ugt50B3 (UDP-glycosyltransferase family 50 member B3) [DRSC21419] gave calcium entry signal, replicate 1 (fluorescence units) = 4.41e7; calcium entry signal, replicate 2 (fluorescence units) = 3.20e7; resting calcium signal, replicate 1 (fluorescence units) = 2.54e7; resting calcium signal, replicate 2 (fluorescence units) = 1.45e7.
After knock-down of cindr (CIN85 and CD2AP related) [DRSC14126], the screen gave calcium entry signal, replicate 1 (fluorescence units) = 4.53e7; calcium entry signal, replicate 2 (fluorescence units) = 4.49e7; resting calcium signal, replicate 1 (fluorescence units) = 1.93e7; resting calcium signal, replicate 2 (fluorescence units) = 2.17e7.
Depletion of cindr (CIN85 and CD2AP related) [DRSC14298] resulted in: calcium entry signal, replicate 1 (fluorescence units) = 3.61e7; calcium entry signal, replicate 2 (fluorescence units) = 5.73e7; resting calcium signal, replicate 1 (fluorescence units) = 1.89e7; resting calcium signal, replicate 2 (fluorescence units) = 2.27e7.
CG2121 [DRSC06819] gave calcium entry signal, replicate 1 (fluorescence units) = 3.94e7; calcium entry signal, replicate 2 (fluorescence units) = 3.86e7; resting calcium signal, replicate 1 (fluorescence units) = 1.69e7; resting calcium signal, replicate 2 (fluorescence units) = 1.78e7.
Knock-down of CG2121 [DRSC06820] came out at: calcium entry signal, replicate 1 (fluorescence units) = 3.67e7; calcium entry signal, replicate 2 (fluorescence units) = 3.04e7; resting calcium signal, replicate 1 (fluorescence units) = 1.63e7; resting calcium signal, replicate 2 (fluorescence units) = 1.41e7.
After knock-down of CG13955 [DRSC06443], the screen gave calcium entry signal, replicate 1 (fluorescence units) = 5.72e7; calcium entry signal, replicate 2 (fluorescence units) = 4.63e7; resting calcium signal, replicate 1 (fluorescence units) = 2.57e7; resting calcium signal, replicate 2 (fluorescence units) = 1.90e7.

Look-ups from the list.
For “calcium entry signal, replicate 2 (fluorescence units)”, opa (odd paired) [DRSC22563] shows 3.54e7
For “calcium entry signal, replicate 1 (fluorescence units)”, cindr (CIN85 and CD2AP related) [DRSC14126] reads 4.53e7
Value for Rcd6 (Reduction in Cnn dots 6) [DRSC06054] in “calcium entry signal, replicate 2 (fluorescence units)”: 4.09e7
